Assay results from publication PMC3889402.
Results are given in words; binding and its absence hold for the method and conditions named. For some assays here: Binding seen in cells or lysates may run through a third protein. Some binding calls cover weakened binding; strength is not graded here. Tags and fused reporters may be left off the sequences shown.

The chains behind the UniProt entries cited, without tags or fusion partners.
UniProt P25786: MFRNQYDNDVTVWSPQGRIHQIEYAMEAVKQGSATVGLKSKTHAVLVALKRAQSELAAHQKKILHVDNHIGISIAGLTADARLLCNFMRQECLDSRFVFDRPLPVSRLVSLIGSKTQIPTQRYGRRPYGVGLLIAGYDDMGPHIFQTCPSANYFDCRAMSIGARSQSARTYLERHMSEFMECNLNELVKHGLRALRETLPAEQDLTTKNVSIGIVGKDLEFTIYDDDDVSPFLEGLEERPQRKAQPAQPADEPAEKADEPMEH
UniProt P46379: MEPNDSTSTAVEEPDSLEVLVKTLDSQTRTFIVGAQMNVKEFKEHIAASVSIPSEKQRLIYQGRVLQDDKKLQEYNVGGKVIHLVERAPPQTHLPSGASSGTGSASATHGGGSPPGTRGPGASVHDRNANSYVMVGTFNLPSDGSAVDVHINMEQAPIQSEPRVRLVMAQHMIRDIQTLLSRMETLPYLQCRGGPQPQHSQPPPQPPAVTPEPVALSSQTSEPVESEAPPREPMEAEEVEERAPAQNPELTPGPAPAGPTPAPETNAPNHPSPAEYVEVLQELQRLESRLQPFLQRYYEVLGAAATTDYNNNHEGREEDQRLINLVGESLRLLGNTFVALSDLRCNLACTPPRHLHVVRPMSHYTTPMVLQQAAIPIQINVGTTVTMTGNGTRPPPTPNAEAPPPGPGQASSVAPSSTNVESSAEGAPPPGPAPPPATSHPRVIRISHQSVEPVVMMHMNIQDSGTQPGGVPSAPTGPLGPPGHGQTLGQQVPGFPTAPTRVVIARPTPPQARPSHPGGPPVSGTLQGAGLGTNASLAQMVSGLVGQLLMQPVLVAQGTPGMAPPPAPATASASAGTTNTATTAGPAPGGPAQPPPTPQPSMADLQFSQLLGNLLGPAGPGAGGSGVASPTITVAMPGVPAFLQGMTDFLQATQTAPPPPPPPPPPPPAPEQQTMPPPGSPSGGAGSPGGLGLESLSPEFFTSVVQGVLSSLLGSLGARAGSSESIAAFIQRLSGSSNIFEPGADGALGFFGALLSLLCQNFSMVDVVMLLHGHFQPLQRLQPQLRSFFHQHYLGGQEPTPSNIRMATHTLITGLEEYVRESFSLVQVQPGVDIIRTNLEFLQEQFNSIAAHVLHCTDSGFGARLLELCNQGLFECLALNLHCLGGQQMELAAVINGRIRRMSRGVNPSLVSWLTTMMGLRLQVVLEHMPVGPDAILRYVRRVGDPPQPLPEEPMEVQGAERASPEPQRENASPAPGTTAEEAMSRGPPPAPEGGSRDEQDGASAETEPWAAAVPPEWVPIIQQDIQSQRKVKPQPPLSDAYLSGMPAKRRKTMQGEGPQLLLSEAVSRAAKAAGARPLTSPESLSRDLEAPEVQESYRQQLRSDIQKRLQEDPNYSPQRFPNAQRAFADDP

What was measured:
GST-USP13 [1] = biological target: T1, GST-USP13 (UniProt Q92995); assay: pull-down; glutathione beads with purified GST-tagged protein incubated with whole cell extracts (control, gp78-expressing, gp78 knock-down or knock-out cells; depletion of gp78 reduced the USP13-p97 interaction threefold to fourfold and did not affect USP13-Bag6); immunoblotting; only the target purified
T1 sequence: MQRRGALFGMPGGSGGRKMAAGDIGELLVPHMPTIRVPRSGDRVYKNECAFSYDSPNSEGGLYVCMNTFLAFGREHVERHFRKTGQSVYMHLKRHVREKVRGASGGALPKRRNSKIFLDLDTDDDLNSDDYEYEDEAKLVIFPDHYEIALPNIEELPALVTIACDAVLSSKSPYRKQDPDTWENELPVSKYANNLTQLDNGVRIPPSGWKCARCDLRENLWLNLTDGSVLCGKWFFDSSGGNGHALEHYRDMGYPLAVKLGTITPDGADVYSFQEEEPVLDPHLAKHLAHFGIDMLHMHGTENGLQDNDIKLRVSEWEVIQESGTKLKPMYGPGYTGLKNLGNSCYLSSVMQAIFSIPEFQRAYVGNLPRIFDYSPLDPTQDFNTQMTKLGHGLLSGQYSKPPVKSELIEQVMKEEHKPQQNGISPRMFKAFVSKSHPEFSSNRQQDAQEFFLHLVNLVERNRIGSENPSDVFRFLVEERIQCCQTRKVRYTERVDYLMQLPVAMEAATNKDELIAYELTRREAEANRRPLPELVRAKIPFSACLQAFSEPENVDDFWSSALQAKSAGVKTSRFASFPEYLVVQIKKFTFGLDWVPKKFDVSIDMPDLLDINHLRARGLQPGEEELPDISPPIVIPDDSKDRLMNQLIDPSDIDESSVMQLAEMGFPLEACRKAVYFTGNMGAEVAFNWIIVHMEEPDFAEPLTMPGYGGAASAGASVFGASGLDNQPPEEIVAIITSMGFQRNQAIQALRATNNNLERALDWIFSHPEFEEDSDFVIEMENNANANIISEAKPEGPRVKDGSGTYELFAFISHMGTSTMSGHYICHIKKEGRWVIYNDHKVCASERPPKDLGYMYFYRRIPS

GST-USP13 [2] = biological target: T1, GST-USP13; assay: pull-down; purified GST-tagged protein immobilised on glutathione beads and incubated with recombinant or purified protein; immunoblotting; both purified

| binding (GST-USP13 [1]) | binding (GST-USP13 [2]) | Substance |
| --- | --- | --- |
| binds | – | α6 (from UniProt P25786 1-263) |
| – | binds | Bag6 purified from mammalian cells (from UniProt P46379 1-1132) |
